Results deposited as PubChem BioAssay AID1259254 (NCATS, 2017)
The whole screen tested about 59,000 reagents; shown is a random part of them. About 1,550 of them (2.6%) count as active. 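G2 share is only a proxy for re-replication; each gene was hit by three separate siRNAs, and active genes were retested.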 Reagents against one gene are numbered here. Further read-outs or replicates are left out here. Reagent sequences are not shown. The record does not give: the amount of reagent.

Test: 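Genome-wide screen for genes that prevent DNA re-replication in cancer cells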 (primary screen)
Cell system: human HCT116 colorectal cancer cells
Reagents: single siRNA against human genes
Time to read-out: 3 days
Read-out: 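Imaged Hoechst DNA stain sorts each cell into a cycle phase by DNA amount; per plate, G2 fraction set to 0% for non-targeting and 100% for GMNN siRNA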
Reading the numbers: G2 robust z-score: higher = more G2 cells, more excess DNA replication
Hit rule: 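Active siRNAs have a G2 robust z of 5 or more median absolute deviations over the median, which in these data means about 38% or higher of GMNN control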

| Gene | siRNA no. | G2 robust z-score | call |
| --- | --- | --- | --- |
| LGALS8 | 1 | -1.21 | inactive |
| LGALS8 | 2 | -1.25 | inactive |
| LGALS8 | 3 | -0.742 | inactive |
| HECW1 | 1 | 1.72 | inactive |
| HECW1 | 2 | -0.69 | inactive |
| HECW1 | 3 | -0.654 | inactive |
| OSBPL2 | 1 | 2.75 | inactive |
| OSBPL2 | 2 | -0.549 | inactive |
| OSBPL2 | 3 | -0.566 | inactive |
| ITGA8 | 1 | 1.17 | inactive |
| ITGA8 | 2 | -0.82 | inactive |
| ITGA8 | 3 | -0.202 | inactive |
| IARS2P1 | 1 | -0.412 | inactive |
| IARS2P1 | 2 | -0.194 | inactive |
| IARS2P1 | 3 | -0.189 | inactive |
| COPS7B | 1 | 2.6 | inactive |
| COPS7B | 2 | 1.94 | inactive |
| COPS7B | 3 | 0.511 | inactive |
| MEIS3 | 1 | 0.288 | inactive |
| MEIS3 | 2 | -1.11 | inactive |
| MEIS3 | 3 | 0.387 | inactive |
| STK38 | 1 | 0.168 | inactive |
| STK38 | 2 | -0.947 | inactive |
| STK38 | 3 | -0.596 | inactive |
| KCNA1 | 1 | 1.38 | inactive |
| KCNA1 | 2 | 1.67 | inactive |
| KCNA1 | 3 | -0.631 | inactive |
| VCF2 | 1 | -0.775 | inactive |
| VCF2 | 2 | 0.498 | inactive |
| VCF2 | 3 | 0.888 | inactive |
| OR9A4 | 1 | -0.0761 | inactive |
| OR9A4 | 2 | 0.983 | inactive |
| OR9A4 | 3 | 0.388 | inactive |
| NPAT | 1 | 6.46 | active |
| NPAT | 2 | -0.301 | inactive |
| NPAT | 3 | -1.15 | inactive |
| AGAP11 | 1 | -0.795 | inactive |
| AGAP11 | 2 | -0.875 | inactive |
| AGAP11 | 3 | -1.05 | inactive |
| ETF1 | 1 | 2.38 | inactive |
| ETF1 | 2 | 0.848 | inactive |
| ETF1 | 3 | -0.0269 | inactive |
| WSB2 | 1 | 0.317 | inactive |
| WSB2 | 2 | 0.511 | inactive |
| WSB2 | 3 | -0.895 | inactive |
| STYX | 1 | 1.2 | inactive |
| STYX | 2 | -0.635 | inactive |
| STYX | 3 | -0.521 | inactive |
| SBF1 | 1 | 0.198 | inactive |
| SBF1 | 2 | -1.08 | inactive |
| SBF1 | 3 | -0.0231 | inactive |
| DCXR | 1 | -0.0596 | inactive |
| DCXR | 2 | -0.726 | inactive |
| DCXR | 3 | -1.25 | inactive |
| FABP5 | 1 | -1.45 | inactive |
| FABP5 | 2 | -0.812 | inactive |
| FABP5 | 3 | -0.731 | inactive |
| EIF2S2P4 | 1 | -0.0956 | inactive |
| EIF2S2P4 | 2 | 1.42 | inactive |
| EIF2S2P4 | 3 | -0.532 | inactive |
| CACNA1C | 1 | 3.24 | inactive |
| CACNA1C | 2 | 0.499 | inactive |
| CACNA1C | 3 | 0.796 | inactive |
| CLDN12 | 1 | 0.115 | inactive |
| CLDN12 | 2 | 0.462 | inactive |
| CLDN12 | 3 | -0.847 | inactive |
| ETFB | 1 | 2.37 | inactive |
| ETFB | 2 | -0.736 | inactive |
| ETFB | 3 | 0.0696 | inactive |

Already shown: entries from further up.
| Gene | siRNA no. | G2 robust z-score | call |
| --- | --- | --- | --- |
| STK38 | 2 | -0.947 | inactive |
| STK38 | 3 | -0.596 | inactive |
| KCNA1 | 1 | 1.38 | inactive |
| KCNA1 | 2 | 1.67 | inactive |
| KCNA1 | 3 | -0.631 | inactive |
| VCF2 | 1 | -0.775 | inactive |
